Results deposited as PubChem BioAssay AID743121 (NCATS, 2013).

Assay: 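Partners whose loss is lethal together with topoisomerase I blockade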 (primary screen)
Cell system: MDA-MB-231 cells, a human breast cancer line
Knock-down reagent: single siRNA against human genes, 20 nM siRNA (0.8 pmol per well)
Duration: 120 h (drug added 48 h after transfection, read 72 h later)
Conditions: camptothecin 20 nM (about EC30) for 72 h; vehicle 0.1% DMSO in parallel plates
Detection: 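CellTiter-Glo ATP signal, scaled to control siRNA as percent viability; sensitisation given as log2 of untreated divided by camptothecin-treated viability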
Scale: log2 vehicle/camptothecin viability: higher = stronger sensitisation to camptothecin
Active means: 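Active genes have an RSA gene-level p-value below 0.001, computed from the ratios of their separate siRNAs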
In all, the deposit lists about 26,000 reagents; shown is an unselected part. 167 of all reagents (0.63%) count as active. 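Calls are per gene from RSA p-values that are not deposited; an individual active-marked siRNA can sensitise only weakly.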 Unmarked entries are inactive. Reagents against one gene are numbered here. Not all columns of the deposit are shown.

| gene | reagent | log2 vehicle/camptothecin viability |
| --- | --- | --- |
| CDKN1A (GeneID 1026) | 1 | -0.0836 |
| CDKN1A (GeneID 1026) | 2 | -0.313 |
| CDKN1A (GeneID 1026) | 3 | -0.022 |
| CDKN1A (GeneID 1026) | 4 | -0.237 |
| SOX4 (GeneID 6659) | 1 | -0.382 |
| SOX4 (GeneID 6659) | 2 | -0.184 |
| SOX4 (GeneID 6659) | 3 | -0.111 |
| SOX4 (GeneID 6659) | 4 | -0.0935 |
| BRD4 (GeneID 23476) | 1 | -0.658 |
| BRD4 (GeneID 23476) | 2 | -0.454 |
| BRD4 (GeneID 23476) | 3 | -0.579 |
| BRD4 (GeneID 23476) | 4 | -0.535 |
| RPS6KA4 (GeneID 8986) | 1 | 0.687 |
| RPS6KA4 (GeneID 8986) | 2 | -0.116 |
| RPS6KA4 (GeneID 8986) | 3 | -0.418 |
| RPS6KA4 (GeneID 8986) | 4 | -0.482 |
| WASF2 (GeneID 10163) | 1 | -0.328 |
| WASF2 (GeneID 10163) | 2 | 0.229 |
| WASF2 (GeneID 10163) | 3 | -0.247 |
| WASF2 (GeneID 10163) | 4 | -0.273 |
| SERPINA13P (GeneID 388007) | 1 | -0.245 |
| SERPINA13P (GeneID 388007) | 2 | -0.257 |
| SERPINA13P (GeneID 388007) | 3 | -0.463 |
| SERPINA13P (GeneID 388007) | 4 | -0.294 |
| PKD2L1 (GeneID 9033) | 1 | -0.265 |
| PKD2L1 (GeneID 9033) | 2 | -0.188 |
| PKD2L1 (GeneID 9033) | 3 | -0.0654 |
| CD300E (GeneID 342510) | 1 | 0.23 |
| CD300E (GeneID 342510) | 2 | -0.0739 |
| CD300E (GeneID 342510) | 3 | -0.245 |
| CD300E (GeneID 342510) | 4 | -0.511 |

Sorted by “log2 vehicle/camptothecin viability” (ascending): some entries from above
| gene | reagent | log2 vehicle/camptothecin viability |
| --- | --- | --- |
| SERPINA13P (GeneID 388007) | 3 | -0.463 |
| SERPINA13P (GeneID 388007) | 4 | -0.294 |
| WASF2 (GeneID 10163) | 4 | -0.273 |
| PKD2L1 (GeneID 9033) | 1 | -0.265 |
| SERPINA13P (GeneID 388007) | 2 | -0.257 |
| SERPINA13P (GeneID 388007) | 1 | -0.245 |
| CD300E (GeneID 342510) | 3 | -0.245 |
| PKD2L1 (GeneID 9033) | 2 | -0.188 |
| CD300E (GeneID 342510) | 2 | -0.0739 |
| PKD2L1 (GeneID 9033) | 3 | -0.0654 |
| CD300E (GeneID 342510) | 1 | 0.23 |

The list goes on:
| gene | reagent | log2 vehicle/camptothecin viability |
| --- | --- | --- |
| TLR8 (GeneID 51311) | 1 | 0.146 |
| TLR8 (GeneID 51311) | 2 | 0.625 |
| TLR8 (GeneID 51311) | 3 | -0.452 |
| TLR8 (GeneID 51311) | 4 | 0.186 |
| SERPINB11 (GeneID 89778) | 1 | -0.0784 |
| SERPINB11 (GeneID 89778) | 2 | -0.41 |
| SERPINB11 (GeneID 89778) | 3 | 0.111 |
| ASB2 (GeneID 51676) | 1 | -0.697 |
| ASB2 (GeneID 51676) | 2 | -0.274 |
| ASB2 (GeneID 51676) | 3 | -0.391 |
| ASB2 (GeneID 51676) | 4 | 0.0271 |
| CLEC11A (GeneID 6320) | 1 | -0.578 |
| CLEC11A (GeneID 6320) | 2 | -0.265 |
| CLEC11A (GeneID 6320) | 3 | -0.16 |
| CLEC11A (GeneID 6320) | 4 | -0.0828 |
| RPL7A (GeneID 6130) | 1 | -0.846 |
| RPL7A (GeneID 6130) | 2 | -0.296 |
| RPL7A (GeneID 6130) | 3 | -0.472 |
| XDH (GeneID 7498) | 1 | -0.322 |
| XDH (GeneID 7498) | 2 | 0.0377 |
| XDH (GeneID 7498) | 3 | 0.225 |
| XDH (GeneID 7498) | 4 | -0.162 |
| CCN6 (GeneID 8838) | 1 | -0.265 |
| CCN6 (GeneID 8838) | 2 | 0.0439 |
| CCN6 (GeneID 8838) | 3 | -0.271 |
| NSG2 (GeneID 51617) | 1 | 0.0748 |
| NSG2 (GeneID 51617) | 2 | 0.562 |
| NSG2 (GeneID 51617) | 3 | -0.392 |
| NSG2 (GeneID 51617) | 4 | -0.453 |
| LAMP2 (GeneID 3920) | 1 | -0.63 |
| LAMP2 (GeneID 3920) | 2 | -0.0399 |
| LAMP2 (GeneID 3920) | 3 | -0.185 |
| LAMP2 (GeneID 3920) | 4 | -0.316 |
| KDM4B (GeneID 23030) | 1 | -0.276 |
| KDM4B (GeneID 23030) | 2 | -0.186 |
| KDM4B (GeneID 23030) | 3 | -0.215 |
| KDM4B (GeneID 23030) | 4 | -0.232 |
| KIF5A (GeneID 3798) | 1 | -0.123 |
| KIF5A (GeneID 3798) | 2 | 0.289 |
| KIF5A (GeneID 3798) | 3 | -0.281 |
| KIF5A (GeneID 3798) | 4 | -0.00727 |
| GPX5 (GeneID 2880) | 1 | -0.595 |
| GPX5 (GeneID 2880) | 2 | -0.337 |
| GPX5 (GeneID 2880) | 3 | -0.489 |
| GPX5 (GeneID 2880) | 4 | -0.0415 |
| RRH (GeneID 10692) | 1 | 0.0734 |
| RRH (GeneID 10692) | 2 | -0.241 |
| RRH (GeneID 10692) | 3 | -0.309 |
| RRH (GeneID 10692) | 4 | 0.425 |
| DGKG (GeneID 1608) | 1 | -0.249 |
| DGKG (GeneID 1608) | 2 | -0.189 |
| DGKG (GeneID 1608) | 3 | -0.176 |
| DGKG (GeneID 1608) | 4 | -0.172 |
| CYP46A1 (GeneID 10858) | 1 | -0.147 |
| CYP46A1 (GeneID 10858) | 2 | -0.494 |
| CYP46A1 (GeneID 10858) | 3 | -0.265 |
